Reference: the supplement of paper PMC10849652
The other results are listed elsewhere or left out. Residues, ends and D or L forms follow the SMILES beside them. *: point of attachment. Cbz = O=C(OCc1ccccc1)*

Chains of the proteins cited; added tags and fusions are not shown. Lines headed by an entry give the natural chain unless they say otherwise; changes in a name come on top.
UniProt P09110: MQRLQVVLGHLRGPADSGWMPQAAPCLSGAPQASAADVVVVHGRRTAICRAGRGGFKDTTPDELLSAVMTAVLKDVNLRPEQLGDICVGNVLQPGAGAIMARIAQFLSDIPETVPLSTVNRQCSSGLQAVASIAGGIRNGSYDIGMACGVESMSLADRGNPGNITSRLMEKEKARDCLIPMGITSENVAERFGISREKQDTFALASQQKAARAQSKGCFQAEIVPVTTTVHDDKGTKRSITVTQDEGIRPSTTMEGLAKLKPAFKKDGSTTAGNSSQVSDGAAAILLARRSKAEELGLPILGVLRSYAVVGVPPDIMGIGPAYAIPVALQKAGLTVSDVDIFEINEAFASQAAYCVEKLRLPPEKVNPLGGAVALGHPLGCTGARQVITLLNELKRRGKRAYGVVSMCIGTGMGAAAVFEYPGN
UniProt Q8NE71: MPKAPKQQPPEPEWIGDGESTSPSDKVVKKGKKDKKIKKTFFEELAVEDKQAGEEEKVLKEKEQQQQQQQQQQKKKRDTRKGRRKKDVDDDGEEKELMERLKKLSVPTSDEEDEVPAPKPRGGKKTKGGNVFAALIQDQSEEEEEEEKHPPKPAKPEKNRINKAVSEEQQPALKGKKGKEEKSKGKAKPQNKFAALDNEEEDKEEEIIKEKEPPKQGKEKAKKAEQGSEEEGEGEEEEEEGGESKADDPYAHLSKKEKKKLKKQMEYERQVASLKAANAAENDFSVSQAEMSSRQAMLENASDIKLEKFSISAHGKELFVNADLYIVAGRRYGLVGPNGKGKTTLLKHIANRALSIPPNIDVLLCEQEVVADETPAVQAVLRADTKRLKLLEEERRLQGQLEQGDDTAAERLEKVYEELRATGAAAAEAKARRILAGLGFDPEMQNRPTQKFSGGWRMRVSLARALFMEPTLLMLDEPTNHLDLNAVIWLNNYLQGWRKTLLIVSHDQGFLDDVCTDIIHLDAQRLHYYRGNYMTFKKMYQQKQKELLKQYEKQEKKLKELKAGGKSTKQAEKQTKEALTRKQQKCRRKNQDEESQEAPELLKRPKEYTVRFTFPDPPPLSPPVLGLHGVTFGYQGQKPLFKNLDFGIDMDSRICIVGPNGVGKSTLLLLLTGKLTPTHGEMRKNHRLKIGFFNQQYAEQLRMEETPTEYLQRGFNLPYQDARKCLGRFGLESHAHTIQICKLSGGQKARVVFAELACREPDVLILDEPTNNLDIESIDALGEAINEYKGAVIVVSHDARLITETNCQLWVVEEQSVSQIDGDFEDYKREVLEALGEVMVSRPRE
UniProt P12814, whole entry, looked up: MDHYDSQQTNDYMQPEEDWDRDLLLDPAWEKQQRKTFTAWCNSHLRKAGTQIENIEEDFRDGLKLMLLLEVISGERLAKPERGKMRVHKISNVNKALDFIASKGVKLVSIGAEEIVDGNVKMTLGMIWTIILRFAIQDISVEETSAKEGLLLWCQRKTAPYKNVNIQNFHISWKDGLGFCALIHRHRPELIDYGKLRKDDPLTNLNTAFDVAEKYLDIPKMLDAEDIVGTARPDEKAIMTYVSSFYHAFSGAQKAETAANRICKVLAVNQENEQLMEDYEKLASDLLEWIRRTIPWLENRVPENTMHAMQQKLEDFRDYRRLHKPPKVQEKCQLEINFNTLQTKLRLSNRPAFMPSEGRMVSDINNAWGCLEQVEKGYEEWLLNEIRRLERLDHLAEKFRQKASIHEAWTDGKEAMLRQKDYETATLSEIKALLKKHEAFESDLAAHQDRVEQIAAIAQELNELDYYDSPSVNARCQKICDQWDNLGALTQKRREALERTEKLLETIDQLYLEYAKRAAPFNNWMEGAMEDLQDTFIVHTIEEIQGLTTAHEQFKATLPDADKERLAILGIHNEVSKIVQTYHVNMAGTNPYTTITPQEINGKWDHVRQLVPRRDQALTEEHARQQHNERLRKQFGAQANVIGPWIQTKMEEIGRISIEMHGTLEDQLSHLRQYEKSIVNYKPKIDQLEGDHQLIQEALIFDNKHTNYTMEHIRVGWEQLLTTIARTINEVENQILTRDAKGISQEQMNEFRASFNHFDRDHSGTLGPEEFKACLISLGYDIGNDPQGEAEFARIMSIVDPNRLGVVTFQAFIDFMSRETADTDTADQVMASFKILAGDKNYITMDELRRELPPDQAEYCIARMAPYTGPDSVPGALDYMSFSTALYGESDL
UniProt Q9NRN7: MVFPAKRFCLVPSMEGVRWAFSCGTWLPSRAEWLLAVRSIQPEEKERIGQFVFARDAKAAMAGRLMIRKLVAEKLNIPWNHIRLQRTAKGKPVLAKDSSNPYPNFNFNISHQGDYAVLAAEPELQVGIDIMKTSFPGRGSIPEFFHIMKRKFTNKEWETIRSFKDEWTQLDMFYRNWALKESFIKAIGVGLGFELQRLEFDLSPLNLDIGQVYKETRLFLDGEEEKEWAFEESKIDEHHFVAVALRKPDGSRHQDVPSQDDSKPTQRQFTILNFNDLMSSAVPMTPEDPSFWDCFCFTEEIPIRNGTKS
UniProt P49588, whole entry, looked up: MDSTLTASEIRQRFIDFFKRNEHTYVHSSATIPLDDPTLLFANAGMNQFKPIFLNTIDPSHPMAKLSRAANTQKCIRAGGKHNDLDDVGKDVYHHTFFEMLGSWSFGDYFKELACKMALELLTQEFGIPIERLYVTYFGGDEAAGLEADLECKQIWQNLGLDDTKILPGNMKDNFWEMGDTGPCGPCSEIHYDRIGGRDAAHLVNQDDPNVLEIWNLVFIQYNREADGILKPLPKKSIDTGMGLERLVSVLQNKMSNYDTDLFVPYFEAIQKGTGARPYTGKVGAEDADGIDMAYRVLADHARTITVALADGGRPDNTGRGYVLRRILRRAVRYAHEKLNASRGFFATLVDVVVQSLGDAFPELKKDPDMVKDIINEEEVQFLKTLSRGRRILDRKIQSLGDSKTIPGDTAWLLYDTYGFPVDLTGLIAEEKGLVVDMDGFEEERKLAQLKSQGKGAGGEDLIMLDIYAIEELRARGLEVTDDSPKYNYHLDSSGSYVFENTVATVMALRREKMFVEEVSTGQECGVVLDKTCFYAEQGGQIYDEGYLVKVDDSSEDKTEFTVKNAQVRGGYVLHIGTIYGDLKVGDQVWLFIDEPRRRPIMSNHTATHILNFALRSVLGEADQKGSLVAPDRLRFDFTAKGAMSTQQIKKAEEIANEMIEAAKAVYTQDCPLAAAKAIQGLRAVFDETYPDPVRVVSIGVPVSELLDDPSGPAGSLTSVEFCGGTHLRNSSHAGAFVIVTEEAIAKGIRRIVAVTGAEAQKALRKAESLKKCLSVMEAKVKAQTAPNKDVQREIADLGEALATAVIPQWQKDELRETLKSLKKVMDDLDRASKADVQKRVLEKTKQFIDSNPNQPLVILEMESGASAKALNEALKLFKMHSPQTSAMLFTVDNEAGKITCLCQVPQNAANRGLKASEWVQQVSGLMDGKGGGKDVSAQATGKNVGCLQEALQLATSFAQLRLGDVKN
UniProt Q9NR19, whole entry, looked up: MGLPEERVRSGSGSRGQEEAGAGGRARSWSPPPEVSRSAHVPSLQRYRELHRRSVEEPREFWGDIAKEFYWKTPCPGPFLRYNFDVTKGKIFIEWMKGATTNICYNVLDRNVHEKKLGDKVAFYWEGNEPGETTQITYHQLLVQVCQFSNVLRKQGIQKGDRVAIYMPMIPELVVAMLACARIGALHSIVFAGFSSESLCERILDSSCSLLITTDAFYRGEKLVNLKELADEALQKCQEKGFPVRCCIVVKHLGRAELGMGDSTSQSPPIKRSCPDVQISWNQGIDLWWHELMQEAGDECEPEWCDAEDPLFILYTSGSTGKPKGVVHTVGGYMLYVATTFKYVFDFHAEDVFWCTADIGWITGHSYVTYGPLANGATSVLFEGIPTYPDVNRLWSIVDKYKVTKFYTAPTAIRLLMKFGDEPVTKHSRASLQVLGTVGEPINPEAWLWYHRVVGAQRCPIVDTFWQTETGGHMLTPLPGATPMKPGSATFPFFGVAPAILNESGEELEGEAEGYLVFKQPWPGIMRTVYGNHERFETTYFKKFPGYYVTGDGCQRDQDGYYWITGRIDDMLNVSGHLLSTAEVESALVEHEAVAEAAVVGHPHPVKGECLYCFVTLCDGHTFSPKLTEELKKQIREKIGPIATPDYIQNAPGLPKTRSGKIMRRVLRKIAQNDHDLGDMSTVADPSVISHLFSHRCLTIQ
UniProt P33527: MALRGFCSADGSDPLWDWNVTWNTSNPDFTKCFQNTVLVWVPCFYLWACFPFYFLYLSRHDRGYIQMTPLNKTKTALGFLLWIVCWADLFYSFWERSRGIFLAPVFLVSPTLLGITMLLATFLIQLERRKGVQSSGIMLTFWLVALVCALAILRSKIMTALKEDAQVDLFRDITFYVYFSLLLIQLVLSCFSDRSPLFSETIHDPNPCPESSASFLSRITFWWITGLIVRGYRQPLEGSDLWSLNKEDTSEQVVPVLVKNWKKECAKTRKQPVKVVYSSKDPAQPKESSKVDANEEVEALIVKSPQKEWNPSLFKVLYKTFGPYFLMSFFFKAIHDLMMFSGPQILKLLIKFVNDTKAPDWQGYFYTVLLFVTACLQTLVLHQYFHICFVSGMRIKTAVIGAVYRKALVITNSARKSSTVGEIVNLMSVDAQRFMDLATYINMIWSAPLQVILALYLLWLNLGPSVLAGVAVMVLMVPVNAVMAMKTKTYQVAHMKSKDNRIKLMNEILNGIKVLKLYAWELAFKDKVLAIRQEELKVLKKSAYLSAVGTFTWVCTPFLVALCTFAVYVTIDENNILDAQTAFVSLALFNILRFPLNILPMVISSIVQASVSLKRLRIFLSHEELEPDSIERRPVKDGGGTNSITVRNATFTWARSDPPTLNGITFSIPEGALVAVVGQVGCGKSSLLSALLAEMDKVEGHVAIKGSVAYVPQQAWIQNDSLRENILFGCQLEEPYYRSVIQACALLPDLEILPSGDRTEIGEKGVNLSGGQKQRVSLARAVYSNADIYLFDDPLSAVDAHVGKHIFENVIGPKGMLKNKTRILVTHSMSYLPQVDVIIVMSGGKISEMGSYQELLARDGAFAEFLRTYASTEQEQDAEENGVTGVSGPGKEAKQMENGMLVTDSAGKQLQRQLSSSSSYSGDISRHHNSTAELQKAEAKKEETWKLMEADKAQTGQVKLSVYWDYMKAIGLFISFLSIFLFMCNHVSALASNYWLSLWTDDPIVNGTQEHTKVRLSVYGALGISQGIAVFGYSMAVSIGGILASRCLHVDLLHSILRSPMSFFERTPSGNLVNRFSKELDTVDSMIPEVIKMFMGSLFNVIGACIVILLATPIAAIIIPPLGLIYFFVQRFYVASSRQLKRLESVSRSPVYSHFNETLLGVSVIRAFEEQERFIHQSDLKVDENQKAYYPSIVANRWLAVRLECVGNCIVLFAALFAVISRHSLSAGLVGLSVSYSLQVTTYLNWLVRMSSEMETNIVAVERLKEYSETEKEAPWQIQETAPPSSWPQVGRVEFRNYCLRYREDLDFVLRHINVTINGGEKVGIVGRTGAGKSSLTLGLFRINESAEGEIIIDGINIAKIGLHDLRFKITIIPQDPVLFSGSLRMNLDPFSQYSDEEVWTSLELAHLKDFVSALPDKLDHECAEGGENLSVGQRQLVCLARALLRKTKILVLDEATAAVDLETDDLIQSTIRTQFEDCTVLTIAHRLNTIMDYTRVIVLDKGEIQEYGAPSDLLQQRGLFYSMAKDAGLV
UniProt Q9NUJ1: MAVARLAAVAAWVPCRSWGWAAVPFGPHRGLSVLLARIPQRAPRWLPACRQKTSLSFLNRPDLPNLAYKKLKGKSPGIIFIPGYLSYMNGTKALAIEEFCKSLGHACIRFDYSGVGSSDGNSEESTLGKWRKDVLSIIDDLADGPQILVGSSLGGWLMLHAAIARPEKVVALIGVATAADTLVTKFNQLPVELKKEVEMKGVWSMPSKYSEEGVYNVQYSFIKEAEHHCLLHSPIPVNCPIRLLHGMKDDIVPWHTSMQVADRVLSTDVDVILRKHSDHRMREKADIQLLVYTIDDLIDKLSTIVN
UniProt P24666: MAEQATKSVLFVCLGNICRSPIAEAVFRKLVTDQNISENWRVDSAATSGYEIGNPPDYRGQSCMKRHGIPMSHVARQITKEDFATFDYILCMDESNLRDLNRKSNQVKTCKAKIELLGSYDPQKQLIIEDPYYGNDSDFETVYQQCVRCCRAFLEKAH
UniProt Q8NFV4: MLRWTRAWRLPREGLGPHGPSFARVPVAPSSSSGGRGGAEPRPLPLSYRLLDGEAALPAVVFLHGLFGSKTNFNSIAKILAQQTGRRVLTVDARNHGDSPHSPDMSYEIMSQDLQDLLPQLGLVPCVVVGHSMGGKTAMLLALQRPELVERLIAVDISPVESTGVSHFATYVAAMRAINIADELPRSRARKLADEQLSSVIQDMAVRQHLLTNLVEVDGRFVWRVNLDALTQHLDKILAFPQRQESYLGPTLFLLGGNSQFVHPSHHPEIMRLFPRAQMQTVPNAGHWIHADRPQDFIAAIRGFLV

Legend:
Assay in all cases: log2 fold change, soluble protein after heating vs DMSO (PISA); higher = thermal stabilisation; K562 cells, 10 uM, 30 min; active = over 0.2 and 3.5 SD of the protein, either way, in both replicates (recomputed)
erlotinib = compound: C#Cc1cccc(Nc2ncnc3cc(OCCOC)c(OCCOC)cc23)c1 [erlotinib]
Procedure, shortened: (§1)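 K562 cells (2×10^6 cells/mL) were treated with 10 μM compound for 30 min, and aliquots were heated for 3 min over 48°C-58°C. Pooled aliquots were extracted in PBS with 0.5% NP-40 at 4°C, and the supernatant after 21,000xg for 90 min was measured by TMTpro 16plex LC-MS/MS with channel sums equalised. Reported thermal stability, relative to control samples and from duplicates, is a log2 fold change.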

[1] = compound: C/C(=N\NC(=O)C1=CC(=CC=C1)S(=O)(=O)N2CCOCC2)/C3=C(C=CC(=C3)Cl)O
Procedure, shortened: as §1

[2] = compound: C1=CC(=C(C=C1Cl)C2=NC3=NC=CN=C3C(=N2)NC4=CC=NC=C4)F
Procedure, shortened: as §1

[3] = compound: C1=CC(=CC=C1C2=NC3=C(N2)C=C(C=C3)C(=O)N)OC4=CC=C(C=C4)Cl
Procedure, shortened: as §1

[4] = compound: C1=CC2=C(C=CC(=C2)/C=C\3/C(=O)NC(=NCC4=CC=CS4)S3)N=C1
Procedure, shortened: as §1

[5] = compound: C1=CC2=NC=CN=C2C=C1/C=C/3\C(=O)NC(=O)S3
Procedure, shortened: as §1

[6] = compound: C1=CC=C(C=C1)C2=NC(=C(N2)C3=CC=NC=C3)C4=CC(=C(C=C4)Cl)O
Procedure, shortened: as §1

[7] = compound: C1=CC=C2C(=C1)C3=NNC4=CC=CC(=C43)C2=O
Procedure, shortened: as §1

[8] = compound: C1CCN(C1)C(=O)NC2=CC=CC(=C2)NC3=NC=C(C(=N3)NCCC4=CN=CN4)Br
Procedure, shortened: as §1

[9] = compound: C1CN(CCC1(CC2=CC=C(C=C2)Cl)N)C3=NC=NC4=C3C=CN4
Procedure, shortened: as §1

IRAK-1-4 Inhibitor I = compound: C1COCCN1CCN2C3=CC=CC=C3N=C2NC(=O)C4=CC(=CC=C4)[N+](=O)[O-] [IRAK-1-4 Inhibitor I]
Procedure, shortened: as §1

ibrutinib = compound: C=CC(=O)N1CCC[C@@H](n2nc(-c3ccc(Oc4ccccc4)cc3)c3c(N)ncnc32)C1 [ibrutinib]
Procedure, shortened: as §1

[10] = compound: CC(=O)c1cnc2ccc(-c3cc(Cl)c(O)c(Cl)c3)nc2c1N[C@H]1CC[C@H](CN(C)C)CC1
Procedure, shortened: as §1

ralimetinib = compound: CC(C)(C)Cn1c(N)nc2ccc(-c3[nH]c(C(C)(C)C)nc3-c3ccc(F)cc3)nc21 [ralimetinib]
Procedure, shortened: as §1

[11] = compound: CC(C)(O)CC(=O)NCCn1ccc2ncnc(Nc3ccc(Oc4cccc(C(F)(F)F)c4)c(Cl)c3)c21
Procedure, shortened: as §1

[12] = compound: CC(C)C1=C2N=C(C=C(N2N=C1)NCC3=CC=CC=C3)NCCCCCCN
Procedure, shortened: as §1

[13] = compound: CC(C)C[C@@H](C=O)NC(=O)[C@H](CC(C)C)NC(=O)[C@H](CC(C)C)NC(=O)OCc1ccccc1
Procedure, shortened: as §1

pinometostat = compound: CC(C)N(C[C@H]1O[C@@H](n2cnc3c(N)ncnc32)[C@H](O)[C@@H]1O)[C@H]1C[C@@H](CCc2nc3cc(C(C)(C)C)ccc3[nH]2)C1 [pinometostat]
Procedure, shortened: as §1

[14] = compound: CC1=C(C(CC(=O)N1)C2=CC=C(C=C2)C(F)(F)F)C(=O)NC3=C(C=C4C(=C3)C=NN4)F
Procedure, shortened: as §1

[15] = compound: CC1=C(C2=C(C=C1)C(=O)C3=CC=CC=C3N2CCCN)C
Procedure, shortened: as §1

Target | log2 fold change (erlotinib) | log2 fold change [1] | log2 fold change [2] | log2 fold change [3] | log2 fold change [4] | log2 fold change [5] | log2 fold change [6] | log2 fold change [7] | log2 fold change [8] | log2 fold change [9] | log2 fold change (IRAK-1-4 Inhibitor I) | log2 fold change (ibrutinib) | log2 fold change [10] | log2 fold change (ralimetinib) | log2 fold change [11] | log2 fold change [12] | log2 fold change [13] | log2 fold change (pinometostat) | log2 fold change [14] | log2 fold change [15]
ACAA1 (UniProt P09110) | inactive: -0.032 | inactive: 0.008 | inactive: 0.013 | inactive: 0.038 | inactive: -0.059 | inactive: -0.016 | inactive: -0.033 | inactive: -0.021 | inactive: -0.011 | inactive: 0.022 | inactive: 0.01 | inactive: 0.054 | inactive: 0.009 | inactive: 0.02 | inactive: 0.003 | inactive: 0.045 | inactive: -0.006 | inactive: -0.042 | inactive: -0.004 | inactive: -0.007
ABCF1 (UniProt Q8NE71) | inactive: -0.03 | inactive: -0.054 | inactive: -0.227 | inactive: 0.032 | inactive: -0.05 | inactive: -0.006 | inactive: -0.049 | inactive: 0.025 | inactive: -0.015 | inactive: -0.162 | inactive: -0.046 | inactive: 0.016 | inactive: 0.022 | inactive: 0.102 | inactive: 0.046 | inactive: 0.014 | inactive: 0.098 | inactive: 0.235 | inactive: -0.019 | inactive: 0.108
ADAR isoform 4 (UniProt P55265) | inactive: -0.119 | inactive: -0.223 | inactive: -0.375 | inactive: 0.194 | inactive: 0.308 | inactive: -0.039 | inactive: 0.109 | inactive: -0.174 | inactive: -0.082 | inactive: -0.151 | inactive: -0.008 | inactive: 0.079 | inactive: 0.091 | inactive: 0.198 | inactive: 0.074 | inactive: -0.2 | inactive: 0 | inactive: 0.033 | inactive: 0.037 | inactive: 0.057
ACTN1 (UniProt P12814) | inactive: 0.014 | inactive: 0.006 | inactive: 0.034 | inactive: 0.006 | inactive: 0.013 | inactive: 0.033 | inactive: -0.009 | inactive: -0.03 | inactive: -0.028 | inactive: 0.015 | inactive: -0.005 | inactive: 0.015 | inactive: 0.008 | inactive: -0.033 | inactive: 0.013 | inactive: 0.07 | inactive: -0.033 | inactive: -0.048 | inactive: 0.022 | inactive: 0.026
AASDHPPT (UniProt Q9NRN7) | inactive: -0.054 | inactive: 0.052 | inactive: 0.032 | inactive: 0.002 | inactive: -0.025 | inactive: 0.035 | inactive: -0.027 | inactive: 0.005 | inactive: -0.004 | inactive: -0.021 | inactive: 0.028 | inactive: -0.038 | inactive: 0.043 | inactive: -0.067 | inactive: 0 | inactive: 0.049 | inactive: 0.01 | inactive: 0.003 | inactive: -0.029 | inactive: 0.022
AARS (UniProt P49588) | inactive: -0.003 | inactive: 0.009 | inactive: 0.046 | inactive: 0.002 | inactive: 0.01 | inactive: -0.018 | inactive: 0.009 | inactive: 0.009 | inactive: 0.011 | inactive: 0.003 | inactive: 0.041 | inactive: 0.004 | inactive: 0.022 | inactive: -0.044 | inactive: -0.059 | inactive: -0.051 | inactive: 0.008 | inactive: -0.033 | inactive: -0.016 | inactive: 0.017
ACSS2 isoform 2 (UniProt Q9NR19) | inactive: 0.025 | inactive: 0.03 | inactive: 0.096 | inactive: 0.056 | inactive: 0.056 | inactive: 0.016 | inactive: 0.008 | inactive: -0.01 | inactive: -0.009 | inactive: -0.01 | inactive: 0.009 | inactive: -0.032 | inactive: 0.002 | inactive: -0.064 | inactive: -0.031 | inactive: -0.029 | inactive: 0.017 | inactive: -0.036 | inactive: 0.012 | inactive: 0.027
ACTN4 (UniProt K7EJH8) | inactive: 0.06 | inactive: 0.013 | inactive: -0.061 | inactive: -0.028 | inactive: 0.042 | inactive: 0.032 | inactive: -0.009 | inactive: -0.037 | inactive: 0.024 | inactive: -0.004 | inactive: -0.083 | inactive: 0.014 | inactive: 0.052 | inactive: -0.081 | inactive: 0.04 | inactive: 0.042 | inactive: -0.017 | inactive: -0.028 |  | inactive: -0.025
ADAT3 (UniProt Q96EY9) | inactive: -0.001 | inactive: 0.026 | inactive: -0.008 | inactive: -0.04 | inactive: 0.027 | inactive: 0.002 | inactive: -0.019 | inactive: -0.007 | inactive: 0.005 | inactive: 0.054 | inactive: 0.082 | inactive: 0.027 | inactive: -0.028 | inactive: -0.037 | inactive: 0.019 | inactive: 0.016 | inactive: 0.04 | inactive: 0.015 | inactive: -0.066 | inactive: 0.037
ABCC1 (UniProt P33527) | inactive: 0 | inactive: 0.059 | inactive: 0.017 | inactive: 0.048 | inactive: 0.001 | inactive: 0.05 | inactive: 0.03 | inactive: -0.038 | inactive: -0.027 | inactive: 0.05 | inactive: 0.033 | inactive: 0.036 | inactive: -0.005 | inactive: -0.037 | inactive: 0.032 | inactive: 0.135 | inactive: -0.008 | inactive: 0.007 | inactive: -0.005 | inactive: 0.008
ABHD10 (UniProt Q9NUJ1) | inactive: -0.079 | inactive: -0.03 | inactive: 0.071 | inactive: 0.03 | inactive: 0.032 | inactive: 0.068 | inactive: 0.021 | inactive: -0.064 | inactive: 0.045 | inactive: 0.024 | inactive: 0.049 | inactive: -0.037 | inactive: 0.058 | inactive: -0.035 | inactive: -0.053 | inactive: 0.046 | inactive: -0.058 | inactive: -0.02 | inactive: -0.06 | inactive: -0.005
ACP1 isoform 2 (UniProt P24666) | inactive: 0.072 | inactive: 0.011 | inactive: 0.038 | inactive: 0.024 | inactive: 0.029 | inactive: -0.008 | inactive: -0.018 | inactive: 0 | inactive: 0.004 | inactive: -0.039 | inactive: -0.082 | inactive: -0.028 | inactive: -0.013 | inactive: 0.009 | active: -0.264 | inactive: -0.109 | inactive: -0.039 | inactive: 0.073 |  | active: -0.296
AAAS (UniProt Q9NRG9) | inactive: 0.015 | inactive: 0.076 | inactive: 0.074 | inactive: -0.004 | inactive: 0 | inactive: -0.01 | inactive: 0.045 | inactive: -0.111 | inactive: -0.05 | inactive: 0.038 | inactive: -0.041 | inactive: 0.016 | inactive: -0.056 | inactive: 0.008 | inactive: -0.071 | inactive: -0.091 | inactive: -0.033 | inactive: -0.004 | inactive: -0.009 | inactive: 0.035
AAK1 (UniProt Q2M2I8) | inactive: -0.028 | inactive: -0.055 | inactive: 0.019 | inactive: 0.005 | inactive: 0.339 | inactive: 0.033 | inactive: 0.073 | inactive: 0.319 | inactive: 0.265 | inactive: -0.085 | inactive: -0.085 | inactive: 0.051 | inactive: 0.366 | inactive: 0.04 | inactive: 0 | inactive: -0.043 | inactive: -0.061 | inactive: -0.05 |  | inactive: -0.017
ACSF3 (UniProt Q4G176) | inactive: 0.07 | inactive: -0.066 | inactive: 0.057 | inactive: -0.155 | inactive: -0.104 | inactive: 0.04 | inactive: 0.028 | inactive: 0.022 | inactive: -0.001 | inactive: -0.038 | inactive: 0.05 | inactive: -0.088 | inactive: -0.129 | inactive: -0.004 | inactive: -0.063 | inactive: -0.138 | inactive: 0.077 | inactive: 0.011 |  | inactive: 0.023
ABHD11 (UniProt Q8NFV4) | inactive: 0.03 | inactive: -0.041 | inactive: 0.078 | inactive: -0.033 | inactive: 0.113 | inactive: -0.067 | inactive: 0.045 | inactive: 0.043 | inactive: -0.079 | inactive: 0.01 | inactive: -0.031 | inactive: 0.031 | inactive: -0.007 | inactive: -0.123 | inactive: -0.006 | inactive: -0.043 | inactive: 0.068 | inactive: -0.027 |  | inactive: 0.026

As a working copy, part of the list above:
Target | log2 fold change (erlotinib) | log2 fold change [1] | log2 fold change [2] | log2 fold change [3] | log2 fold change [4] | log2 fold change [5] | log2 fold change [6] | log2 fold change [7] | log2 fold change [8] | log2 fold change [9] | log2 fold change (IRAK-1-4 Inhibitor I) | log2 fold change (ibrutinib) | log2 fold change [10] | log2 fold change (ralimetinib) | log2 fold change [11] | log2 fold change [12] | log2 fold change [13] | log2 fold change (pinometostat) | log2 fold change [14] | log2 fold change [15]
AASDHPPT (UniProt Q9NRN7) | inactive: -0.054 | inactive: 0.052 | inactive: 0.032 | inactive: 0.002 | inactive: -0.025 | inactive: 0.035 | inactive: -0.027 | inactive: 0.005 | inactive: -0.004 | inactive: -0.021 | inactive: 0.028 | inactive: -0.038 | inactive: 0.043 | inactive: -0.067 | inactive: 0 | inactive: 0.049 | inactive: 0.01 | inactive: 0.003 | inactive: -0.029 | inactive: 0.022
AARS (UniProt P49588) | inactive: -0.003 | inactive: 0.009 | inactive: 0.046 | inactive: 0.002 | inactive: 0.01 | inactive: -0.018 | inactive: 0.009 | inactive: 0.009 | inactive: 0.011 | inactive: 0.003 | inactive: 0.041 | inactive: 0.004 | inactive: 0.022 | inactive: -0.044 | inactive: -0.059 | inactive: -0.051 | inactive: 0.008 | inactive: -0.033 | inactive: -0.016 | inactive: 0.017
